Assay results reported in US20250355001A1, “METHOD FOR DETECTING A TAU PROTEIN FRAGMENT IN A SAMPLE” (GTINVENT LIMITED, priority 2022, published 2025).

Tests used:
[1] = tested on: tau protein in brain homogenate of WT, L1 and L66 mice; experiment: Capture ELISA on transgenic mouse brain lysates; details: S1D12 mAb capture
[2] = tested on: tau fragments in plasma of WT, L1 and L66 mice; experiment: Capture ELISA on transgenic mouse plasma; details: S1D12 mAb capture, S1G2 scAb detection
Procedure: Plasma samples from WT, L1, L66+/− and L66+/+ of various ages (1.5-9 months) were taken as described. Mice were terminally anaesthetized using an overdose of sodium pentobarbital and blood was collected through cardiac puncture through a Plastipak syringe pre-rinsed with heparinised saline heparin (10 U/ml) (Heparin sodium salt; Sigma-Aldrich) and transferred into a plastic vial containing lithium heparin anticoagulant (Sarstedt Ltd.) Blood samples, kept on ice for no more than 30 minutes, were centrifuged to obtain plasma at 2000× g for 5 minutes at 6° C. Plasma samples were stored at −20° C.
For mouse plasma capture ELISA, 100 μL capture mAb was coated to the bottom of a black nunc 96 well ‘maxisorp’ plate at 2.5 μg/ml and incubated for 1 hour at 37° C. After washing and blocking as normal, several known standard solutions were set up in triplicate starting at 20 ng/ml of the desired protein before double diluted in the remaining wells. Mouse samples were added to wells in duplicate with a blank in between each sample group. Line1 plasma was diluted 1:10 before addition to plate to account for its high concentration while other samples were diluted 1:2 to account for potential matrix effects. These samples were left to incubate at RT for 1 hour. HRP-conjugated secondary scAb (conjugation carried out according to manufacturer's guidelines, Abcam) was added to each well and left to incubate at RT for 1 hour. The ELISA was developed using SuperSignal ELISA Femto Substrate (Thermo Scientific) and total luminescence was read on Clariostar Plus plate reader (BMG Labtech). Tau concentrations were established using a 4-parameter fit on concentration curves generated from recombinant tau protein spiked into samples at known concentration. For WT and L66 hT40 was used as a calibrator while dGA was used for L1 calibration.

Molecule	detection of tau in brain homogenate ([1]; S1G2 scAb detection)	Plasma tau level ([2]; L1 5 month, dGA calibrator) [ng/mL]	Plasma tau level ([2]; L1 9 month, dGA calibrator) [ng/mL]	Plasma tau level ([2]; L66+/+ 5 month) [ng/mL]	Plasma tau level ([2]; L66+/- 5 month) [ng/mL]	Plasma tau level ([2]; WT 5 month) [ng/mL]	Plasma tau level ([2]; WT 9 month) [ng/mL]	detection of tau in brain homogenate ([1]; CB7 scAb detection, listed as C-B7 scAb)	detection of tau in brain homogenate ([1]; CB7 scAb detection, listed as CB7 scAb)
S1D12 mAb: S1D12 reformatted; heavy chain SEQ ID NO: 445, light chain 446 (antibody, S1D12 mAB Heavy Chain; S1D12 mAB Light Chain) heavy: QVQLQESGPSLVKPSQTLSLTCTVSGFSLNNNAVGWVRQAPGKVPESLVGCSSDGTCYYNSALKSRLDITRDTSKNQISLSLSSVTTDDAAVYYCTRGHYSIYGYDYLGTIDYWGPGLLVTVSSAKTTAPSVYPLAPVCGDTTGSSVTLGCLVKGYFPEPVTLTWNSGSLSSGVHTFPAVLQSDLYTLSSSVTVTSSTWPSQSITCNVAHPASSTKVDKKIEPRGPTIKPCPPCKCPAPNLLGGPSVFIFPPKIKDVLMISLSPIVTCVVVDVSEDDPDVQISWFVNNVEVHTAQTQTHREDYNSTLRVVSALPIQHQDWMSGKEFKCKVNNKDLPAPIERTISKPKGSVRAPQVYVLPPPEEEMTKKQVTLTCMVTDFMPEDIYVEWTNNGKTELNYKNTEPVLDSDGSYFMYSKLRVEKKNWVERNSYSCSVVHEGLHNHHTTKSFSRTPGK light: QAVLTQPSSVSGSLGQRVSITCSGSSSNVGGGNSVGWYQHLPGSGLKTIIYDTNSRPSGVPDRFSGSRSGNTATLTINSLQAEDEGDYYCVTGDSTTHDDLVGSGTRLTVLGGQPKSSPSVTLFPPSSEELETNKATLVCTITDFYPGVVTVDWKVDGTPVTQGMETTQPSKQSNNKYMASSYLTLTARAWERHSSYSCQVTHEGHTVEKSLSRADCS	All four samples have similar tau levels	12.355	13.661	1.937	0.567	1.947	2.177	–	–
CB7: human-specific N-terminal anti-tau clone, Table 10; SEQ ID NO: 364 (protein, CB7 amino acid sequence) scFv: QVQLQESGPSLVKPSQTLSLTCTVSGFSLTNYRVGWVRQAPGKALEWVSNIRSGGTTWYNPALKSRLSITADTSKSQVSLSLSSVTTEDTAVYYCARDSSGDLYAYDYWGPGLLVTVSSEGKSSGASGESKVDDQAVLTQPSSVSRSLGQSVSMTCSGSSSNVGYGNYMAWFQQVPGSAPKLLIYGATSRASGVPDRFSGSRSGNTATLTISSLQAEDEADYYCASYDSTSGGVFGSGTRLTVLG	–	–	–	–	–	–	–	hT40 tau was specifically detected in L66 samples	can specifically detect human tau in Line66 homozygous and heterozygous samples
S1G2: sheep-derived anti-tau core clone; scFv SEQ ID NO: 81, VH 455, VL 456 (protein, S1G2 amino acid sequence) scFv: QVQLQESGPSLVKPSQTLSLTCTVSGFSLTSNSVGWVRQAPGKAPEWVAGIDTDGEEGYNPALNSRLSITRDTSKSQVSLSLSSVTSEDTAVYYCGRSYRADGLAYGYVQAIDYWGPGLLVTVSSEGKSSGASGESKVDDQAVVTQPSSVSGSLGQRVSITCSGSFIGISSVGWFQQLPGSGLRTIIVASDGRPSGVPDRFSMSKSGNTATLTISSLQAEDEADYFCGSSDRTPYTGVFGSGTRLTVLG	tau protein was detected in 50 μg of total brain protein in all four different sample types	–	–	–	–	–	–	–	–
S1D12: sheep-derived anti-tau core clone; scFv SEQ ID NO: 32, VH 443, VL 444 (protein, S1D12 amino acid sequence) scFv: QVQLQESGPSLVKPSQTLSLTCTVSGFSLNNNAVGWVRQAPGKVPESLVGCSSDGTCYYNSALKSRLDITRDTSKNQISLSLSSVTTDDAAVYYCTRGHYSIYGYDYLGTIDYWGPGLLVTVSSEGKSSGASGESKVDDQAVLTQPSSVSGSLGQRVSITCSGSSSNVGGGNSVGWYQHLPGSGLKTIIYDTNSRPSGVPDRFSGSRSGNTATLTINSLQAEDEGDYYCVTGDSTTHDDLVGSGTRLTVLG	–	12.355	13.661	1.937	0.567	1.947	2.177	–	–
